Data reported in PubChem BioAssay AID1347076 (National Center for Advancing Translational Sciences (NCATS), 2019).
Screen size: about 400,000 compounds; about 13,000 (3.2%) were called active. The inconclusive results got no clear call from the source; some entries with a clear call stand among them for comparison. The call rests on the fitted dose curve; in most records, active means well fitted cell-killing curve with a large enough effect; inconclusive means small, poorly fitted or top-dose-only effect, or effect the other way; inactive means flat fitted curve, though single readings scatter. Potencies beside an inconclusive call are fits to weak or partial responses and may not hold up.

Assay: qHTS assay for MDR1-selective chemotherapeutics: Primary screen using the drug-selected MDR subline cells KB-V1; further: nearly all actives have a fitted effect of over 60% in size
Conditions: KB-V1 MDR cells viability, CellTiter-Glo, 72 h; activity change, negative = cytotoxicity: at 46.1 µM (top of the series)
How it was run: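 Following 72 h at 37 degrees C with compound, KB-V1 cell viability was read by CellTiter-Glo luminescence, medium being phenol-red-free DMEM plus 10% FBS; concentration-response parameters came from normalized, curve-fitted qHTS data.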
On the % scale 0 is the no-effect control and ±100 the full control effect; potency means the concentration at half of the fitted maximal effect.

| Structure (SMILES) | Potency | activity change, negative = cytotoxicity |
| --- | --- | --- |
| CSc1ccccc1NC(=O)c1cc(-c2cccnc2)nc2ccc(Br)cc12 | inconclusive: 8.2 µM [cytotoxic, partial curve, poor fit] |  |
| CN(C)CCCN(Cc1ccccc1)C(=S)Nc1ccc(F)c(Cl)c1 | inconclusive: 8.2 µM [cytotoxic, partial curve] |  |
| COc1cccc(CNC(=O)C23CN(Cc4ccccc4)CC2C(c2ccc([N+](=O)[O-])cc2)=NO3)c1 (stereo not given) | active: 13 µM |  |
| Cc1cccc2cc(CN(C(=S)NCC(C)C)C3CCCC3)c(=O)[nH]c12 | inconclusive: 18.4 µM [cytotoxic, single point] |  |
| COc1ccc(-c2c(C#Cc3ccsc3)c3cc(-c4ccc(OC)c(F)c4)ccc3n2C)cc1 | inactive |  |
| COc1ccc(C(=O)NC(NC(=O)c2ccc(OC)c(OC)c2)c2ccccc2F)cc1OC | inconclusive: 3.26 µM [cytotoxic, partial curve, poor fit] |  |
| COc1ccc(NC(=O)c2cc(S(=O)(=O)N3CCCC3)cn2C)cc1Cl | inconclusive: 23.1 µM [rising, single point] |  |
| COc1ccc(-c2nnc(SCC(=O)NCc3ccc(C)cc3)nc2-c2ccc(OC)c(OC)c2)cc1OC | inconclusive: 32.6 µM [cytotoxic, single point] |  |
| CCCCN(C(=O)C(C)(C)Oc1ccc(Cl)cc1)c1c(N)n(CCC)c(=O)[nH]c1=O | inconclusive: 29.1 µM [rising, single point] |  |
| COc1ccc(S(=O)(=O)N(C)c2ccc(C(=O)Nc3ccccc3C(=O)N3CCOCC3)cc2)cc1OC | inactive |  |
| CC(=O)Nc1ccc(-c2ccnc3c2CC(C(=O)NCCC(F)(F)F)O3)cc1 (stereo not given) | inactive |  |
| CC12CC3CC(C)(C1)CC(Nc1nc(N4CCOCC4)nc4ccccc14)(C3)C2 | inconclusive: 3.26 µM [cytotoxic, partial curve] |  |
| CCc1nn(C(CC)C(=O)NCCc2ccc(OC)cc2OC)c(=O)c2cc3occc3n12 (stereo not given) | inconclusive: 0.0058 µM [cytotoxic, full curve, poor fit] |  |
| CCOC(=O)NNC(=O)c1[nH]c2ccc(Br)cc2c1-c1ccccc1 | inactive |  |
| CCS(=O)(=O)N1CCC(n2c(C(F)(F)F)nc3cccnc32)CC1 | inactive |  |
| Cc1ccc2nc(-c3ccccc3)cc(C(=O)NCC3CCCO3)c2c1 (stereo not given) | inconclusive: 8.2 µM [cytotoxic, partial curve] |  |
| Cc1ccc(-c2nc3ccc(Cl)cc3n2OC(C)C(=O)O)cc1 (stereo not given) | inconclusive: 20.6 µM [rising, single point] |  |
| C=CC(=O)NCCCc1cc(C(C)(C)C)c(O)c(C(C)(C)C)c1 | inconclusive: 13 µM [cytotoxic, partial curve, poor fit] |  |
| COCCNC(=S)N(Cc1cc2cc(C)ccc2n2nnnc12)C1CCCC1 | inconclusive: 0.731 µM [cytotoxic, full curve, poor fit] |  |
| Cc1ccc(-n2c(=O)c3ccc(C(=O)NCc4ccccc4Cl)cc3n(Cc3ccccc3F)c2=O)cc1 | inactive |  |
| COc1ccc(N2CCN(CCCNC(=O)C(=O)c3c[nH]c4ccccc34)CC2)cc1 | inconclusive: 5.17 µM [cytotoxic, partial curve] |  |
| CCOC(=O)c1c(-c2ccc(C)cc2)csc1NC(=O)c1nc(SCC)ncc1Cl | inconclusive: 16.4 µM [rising, partial curve, poor fit] |  |

A few values from the list:
Value for CCCCN(C(=O)C(C)(C)Oc1ccc(Cl)cc1)c1c(N)n(CCC)c(=O)[nH]c1=O under Potency: inconclusive: 29.1 µM [rising, single point]
Value for Cc1ccc2nc(-c3ccccc3)cc(C(=O)NCC3CCCO3)c2c1 (stereo not given) under Potency: inconclusive: 8.2 µM [cytotoxic, partial curve]
Value for CCOC(=O)NNC(=O)c1[nH]c2ccc(Br)cc2c1-c1ccccc1 under Potency: inactive
Value for COc1ccc(NC(=O)c2cc(S(=O)(=O)N3CCCC3)cn2C)cc1Cl under Potency: inconclusive: 23.1 µM [rising, single point]
Value for CCOC(=O)c1c(-c2ccc(C)cc2)csc1NC(=O)c1nc(SCC)ncc1Cl under Potency: inconclusive: 16.4 µM [rising, partial curve, poor fit]

(cont.)

| Structure (SMILES) | Potency | activity change, negative = cytotoxicity |
| --- | --- | --- |
| Cc1nc2ccc(NC(=O)c3cccc(S(=O)(=O)N(C)c4ccccc4)c3)cc2s1 |  | inconclusive: -98.2% |
| CC(=O)c1cc(CN2CCC(C(=O)Nc3cccc(-c4cscn4)c3)CC2)cs1 | inconclusive: 20.6 µM [cytotoxic, single point] |  |
| Cc1ccc(N(CC(O)CN2CCOCC2)S(=O)(=O)c2ccc3ccccc3c2)cc1 (stereo not given) | inconclusive: 11.6 µM [cytotoxic, partial curve, poor fit] |  |
| CCOC(=O)c1sc(NC(=O)CN2CCN(c3ccc(OC)cc3)CC2)nc1C | inconclusive: 16.4 µM [cytotoxic, single point] |  |
| CCc1ccc(CN(Cc2cn[nH]c2-c2ccc(OC)cc2)C(=O)Nc2ccc(C)c(F)c2)cc1 | inactive |  |
| N=c1c(S(=O)(=O)c2ccccc2)cc2c(=O)n3ccccc3nc2n1Cc1ccco1 | inactive |  |
| O=C(NC1CCCC1)C1CCN(C(=O)c2cccc(Cl)c2)CC1 | inconclusive: 20.6 µM [cytotoxic, single point] |  |
| COc1ccccc1C(=O)C1CCCN(C(=O)c2ccc(Cl)cc2)C1 (stereo not given) | inconclusive: 23.1 µM [cytotoxic, partial curve, poor fit] |  |
| CN(Cc1ccccc1)S(=O)(=O)c1ccc(Cl)c(C(=O)NCCCN2CCCC2=O)c1 | inconclusive: 29.1 µM [cytotoxic, single point] |  |
| Cc1cn([C@H]2C[C@H](O)[C@@H](/C=C/C(=O)NCCN3CCOCC3)O2)c(=O)[nH]c1=O | inactive |  |
| CSCCC1NC2(C(=O)Nc3c2ccc(Cl)c3C)[C@@H]2C(=O)N(C3CCCC3)C(=O)[C@H]12 (stereo not given in full) | active: 4.11 µM |  |
| O=C(COC(=O)c1ccccc1NC(=O)c1ccco1)Nc1ccc2c(c1)OC(F)(F)O2 | inconclusive: 29.1 µM [cytotoxic, single point] |  |
| C=CCn1cc(C(=O)NCCCN(CC)CC)c(=O)c2cc(S(=O)(=O)N3CCC(C)CC3)ccc21 | inconclusive: 8.2 µM [rising, partial curve] |  |
| CCN(c1ccccc1)S(=O)(=O)c1ccc(C(=O)NCC(c2ccccc2OC)N2CCCC2)cc1 (stereo not given) | inconclusive: 20.6 µM [cytotoxic, partial curve, poor fit] |  |
| CCc1c(C)sc(NC(=O)C2CC2c2ccccc2)c1C(N)=O (stereo not given) | active: 6.51 µM |  |
| C[n+]1ccnc2cc(Cl)ccc21 | active: 5.8 µM |  |
| CCOC(=O)N(C)c1c(CC)nc2c(OCCOc3ccccc3)cccn12 | inconclusive: 8.2 µM [cytotoxic, partial curve] |  |
| COc1ccc(Nc2nc(N)c(C(=O)c3ccc(F)cc3)s2)cc1 | active: 1.3 µM |  |
| COc1cccc2c(=O)cc(C)n(CC(=O)Nc3cccc(C)c3)c12 | inactive |  |
| Cc1c(C(=O)NCC(c2ccco2)N2CCCC2)oc2ccc(Cl)cc12 (stereo not given) | inconclusive: 0.461 µM [cytotoxic, partial curve, poor fit] |  |
| O=C(N=C1SC2CS(=O)(=O)CC2N1c1ccc(Br)cc1F)C1CC1 (stereo not given) | inconclusive: 0.58 µM [cytotoxic, full curve] |  |
| O=C(COC(=O)c1ccccc1SCC(=O)N1CCCC1)Nc1ccc(OC(F)F)cc1 | inconclusive: 29.1 µM [cytotoxic, single point] |  |

| Structure (SMILES) | Potency | activity change, negative = cytotoxicity |
| --- | --- | --- |
| COc1cc(OC)c(N(C)C(=O)Cn2ncc3c([nH]c4ccccc43)c2=O)cc1Cl | inactive |  |
| Cc1cc(NC(=O)/C=C/c2cccc(F)c2)n(-c2nc3ccccc3[nH]2)n1 | inconclusive: 7.31 µM [cytotoxic, partial curve, poor fit] |  |
| CC(C)NC(=O)Nc1nnc([C@H]2C[C@H](O)[C@@H](CO)O2)s1 | inactive |  |
| COc1ccccc1Nc1nnc(SCC2CCCCO2)s1 (stereo not given) | active: 9.2 µM |  |
| O=C(O)C1C2CCC(C2)C1C(=O)N1CCCC1 (stereo not given) | inconclusive: 29.1 µM [rising, single point] |  |
| Cc1ccc(NC(=O)c2cc(S(=O)(=O)N3CCCC(C)C3)cn2C)c(Br)c1 (stereo not given) | inactive |  |
| CC(=O)N(C)c1ccc(OCC(O)Cn2c3ccc(Cl)cc3c3cc(Cl)ccc32)cc1 (stereo not given) | active: 20.6 µM |  |
| COc1ccc(C(=O)OC(C(=O)c2ccccc2)c2ccccc2)cc1 (stereo not given) | inconclusive: 23.1 µM [cytotoxic, partial curve] |  |
| Cc1cccc(N2CCN(C(=O)c3ccc(CS(=O)Cc4ccc(Cl)cc4)o3)CC2)c1C (stereo not given) | inactive |  |
| C[C@@H]1CN([C@H](C)CO)C(=O)CCCn2nncc2CO[C@H]1CN(C)Cc1ccc(-c2ccccc2)cc1 | inconclusive: 29.1 µM [rising, single point] |  |
| CCOc1ccc(CC(=O)C2C(=O)CC(C)(C)CC2=O)cc1OCC | inconclusive: 18.4 µM [cytotoxic, partial curve] |  |
| COc1cc(/C=N/NC(=O)c2cc(-c3cccs3)nc3ccccc23)ccc1O | inconclusive: 18.4 µM [cytotoxic, single point] |  |
| Cc1ccc(-c2cccc(C(=O)NCc3ccccc3)n2)c2ccccc12 | inconclusive: 1.46 µM [cytotoxic, single point] |  |
| O=C(c1ccccc1F)N1CCN(c2ccccc2)CC1 | inconclusive: 14.6 µM [cytotoxic, partial curve, poor fit] |  |
| CC(C)N(C(=O)CN1C(=O)NC(c2ccccc2)(c2ccccc2)C1=O)C(C)C | inconclusive: 14.6 µM [cytotoxic, partial curve] |  |
| CCOC(=O)c1ccc(NC(=O)CSc2nnc(CNc3ccc(C)cc3)n2C)cc1 | inconclusive: 29.1 µM [cytotoxic, partial curve, poor fit] |  |
| O=C(COC(=O)c1ccc(Cl)c(S(=O)(=O)NCc2ccccc2)c1)NC1CC1 |  | inconclusive: -5.82% |
| CCCCCCN1C[C@H](n2cc(-c3ccc(F)cc3)nn2)[C@@H](O)C[C@@H]1c1ccc(C)cc1 | inconclusive: 29.1 µM [cytotoxic, single point] |  |
| c1ccc(CCN2CN=C(Nc3nc4ccccc4o3)NC2)cc1 | active: 13 µM |  |
| COc1ccc2oc(C(=O)Nc3ccccc3N3CCOCC3)c(C)c2c1 | inconclusive: 3.26 µM [cytotoxic, partial curve, poor fit] |  |
| CCN1CCN(c2oc(COc3ccc(Cl)cc3)nc2C#N)CC1 | inactive |  |
